Laboratory results reported in paper PMC8218485.
Results are given in words; binding and its absence hold for the method and conditions named. Binding calls can cover weak binding; strength is not graded here.

B1: AtGL1 (GLABRA1) (protein, UniProt P27900 1-228)
chain: MRIRRRDEKENQEYKKGLWTVEEDNILMDYVLNHGTGQWNRIVRKTGLKRCGKSCRLRWMNYLSPNVNKGNFTEQEEDLIIRLHKLLGNRWSLIAKRVPGRTDNQVKNYWNTHLSKKLVGDYSSAVKTTGEDDDSPPSLFITAATPSSCHHQQENIYENIAKSFNGVVSASYEDKPKQELAQKDVLMATTNDPSHYYGNNALWVHDDDFELSSLVMMNFASGDVEYCL
B2: AtGL3 (GLABRA3) (protein, UniProt Q9FN69 1-637)
chain: MATGQNRTTVPENLKKHLAVSVRNIQWSYGIFWSVSASQSGVLEWGDGYYNGDIKTRKTIQASEIKADQLGLRRSEQLSELYESLSVAESSSSGVAAGSQVTRRASAAALSPEDLADTEWYYLVCMSFVFNIGEGMPGRTFANGEPIWLCNAHTADSKVFSRSLLAKSAAVKTVVCFPFLGGVVEIGTTEHITEDMNVIQCVKTSFLEAPDPYATILPARSDYHIDNVLDPQQILGDEIYAPMFSTEPFPTASPSRTTNGFDQEHEQVADDHDSFMTERITGGASQVQSWQLMDDELSNCVHQSLNSSDCVSQTFVEGAAGRVAYGARKSRVQRLGQIQEQQRNVKTLSFDPRNDDVHYQSVISTIFKTNHQLILGPQFRNCDKQSSFTRWKKSSSSSSGTATVTAPSQGMLKKIIFDVPRVHQKEKLMLDSPEARDETGNHAVLEKKRREKLNERFMTLRKIIPSINKIDKVSILDDTIEYLQELERRVQELESCRESTDTETRGTMTMKRKKPCDAGERTSANCANNETGNGKKVSVNNVGEAEPADTGFTGLTDNLRIGSFGNEVVIELRCAWREGVLLEIMDVISDLHLDSHSVQSSTGDGLLCLTVNCKHKGSKIATPGMIKEALQRVAWIC

Target: LbHLH (Limonium bicolor)
Assay: two-hybrid; Y2H Gold yeast; bait in pGBKT7 (BD), prey in pGADT7 (AD); growth and blue colour of colonies on SD/-Leu/-Trp/X-a-gal/Aba (200 ng/ml) and SD/-Ade/-His/-Leu/-Trp/X-a-gal/Aba (200 ng/ml) after 2 days of culture

Row | Binder | binding
1 | B1 | binds
2 | B2 | no binding
